Measured values from PubChem BioAssay AID1487 (National Center for Advancing Translational Sciences (NCATS), 2009).
About 25 (0.01%) of roughly 200,000 compounds were called active. This list was built around the results that the source calls inconclusive (neither active nor inactive); the mix of calls is not that of the screen. Calls come from the whole dose curve; as a rule, active = well fitted inhibition curve with a large enough effect in the signal ratio, with a control signal flat (not every such curve was filed as active); inconclusive = small, poorly fitted or top-dose-only effect, or effect the other way, or a change in a side signal; inactive = flat fitted curve, though single readings scatter; the % refers to the signal ratio. Where the call is inconclusive, the potency comes from a doubtful curve fit.

experiment: qHTS Assay for Modulators of Lamin A Splicing; settings: HeLa LMNA splicing GFP/RFP minigene ratio, 48 h; ratio change, negative = inhibition: at 46.1 µM (top of the series) unless noted
Summary of the method: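 S3 HeLa stable clones carrying a lamin A-EGFP splicing minigene plus DsRed2 were seeded at 600 cells/well in Opti-MEM with 2% FBS, pin-dosed and incubated 48 h at 37°C. Acumen cytometry (488 nm) gave the GFP/RFP total-intensity ratio.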
% is set by controls: 0 for no effect and ±100 for the full control effect; potency is the fitted concentration of half-maximal effect.

| Compound | ratio change, negative = inhibition | Potency |
| --- | --- | --- |
| CC(c1ccccc1)C1CC(=O)N(CC(=O)O)C1=O (configuration not stated) | inactive |  |
| COC(=O)c1nnn(CC(=O)NC(=O)Nc2ccccc2F)c1C(=O)OC | inactive |  |
| Cc1cc(C)c2c(=O)[nH]c(SCC(=O)NCc3ccccc3)nc2n1 | inconclusive: -38.7% |  |
| Cc1nnc2sc(-c3csc4c3CCCC4)nn12 |  | inconclusive: 15.8 µM [cytotoxic, single point] |
| O=C(CN1CCN(C2CCCCC2)CC1)Nc1cccc2ccccc12 | inactive |  |
| O=S(=O)(NC1CCCCC1Nc1ccccc1)c1ccccc1 (configuration not stated) | inactive |  |
| Oc1ccccc1/C=N/NC(=S)NC1CC2CCC1C2 (configuration not stated) |  | inconclusive: 2 µM [inhibitor, full curve] |
| O=C(C[n+]1ccc(C(=O)N/N=C/c2ccc(Cl)cc2Cl)cc1)c1ccccc1 | inactive |  |
| COC(=O)CC1=C(C(=O)OC)C(c2ccncc2)C(C#N)=C(N)O1 (configuration not stated) | inactive |  |
| Cc1ccccc1-n1cc(CNC(=O)CCc2nnc(CCc3ccccc3)o2)cn1 | inconclusive: 4.93% [at 46 µM] |  |
| COc1cccc(Cn2c(=O)cc(C)c3c(C)nn(-c4ccc(C)cc4)c32)c1 | inactive |  |
| COc1ccc(C(CC(=O)O)NC(=O)c2sc3ccccc3c2Cl)cc1 (configuration not stated) | inactive |  |
| CC(N)=NCc1cccc(CN)c1 | inconclusive: -11.9% |  |
| Cc1ccccc1NC(=O)CSc1cn(CC(=O)N2CCCC2)c2ccccc12 | inconclusive: -9.17% [at 46 µM] |  |
| CCN(C(=O)COC(=O)c1cccnc1Nc1cccc(C(F)(F)F)c1)C1CCS(=O)(=O)C1 (configuration not stated) | inconclusive: -19.3% |  |
| CC(C)(C)c1ccc(OCCNC(=O)c2ncn[nH]2)cc1 | inconclusive: 20.4% |  |
| CC1(C)Cc2c(C#N)c(SCC(=O)c3ccccc3)nc(N3CCOCC3)c2CO1 | inactive |  |
| COc1ccc(N=NC2=C(O)CC(C)(C)CC2=O)cc1 | inconclusive: 11.5% |  |
| Cc1cccc(/N=C/c2c(O)[nH]c3ccccc23)n1 | inconclusive: 10% |  |
| O=C(CCl)NC(=O)NC12CC3CC(CC(C3)C1)C2 |  | inconclusive: 12.6 µM [falling, partial curve] |
| CCCN(CC(=O)c1cc(C)n(C)c1C)S(=O)(=O)c1cccc(C(F)(F)F)c1 |  | inconclusive: 35.5 µM [fluorescent, single point] |
| S=C(N=Nc1ccccc1)NNc1ccccc1 | inactive |  |

| Compound | ratio change, negative = inhibition | Potency |
| --- | --- | --- |
| COc1cc2c(cc1O)CCN(C(=O)c1ccco1)C2C (configuration not stated) | inconclusive: -9.38% [at 46 µM] |  |
| COCCn1c(C)cc(C(=O)CSc2nnc(C)s2)c1C | inconclusive: 4.72% |  |
| Cc1ccc(C)c(NS(=O)(=O)c2cc(C(=O)Nc3ccccc3-c3ccccc3)ccc2Cl)c1 | inactive |  |
| N#Cc1ccccc1S(=O)(=O)N1CCN(c2cnccn2)CC1 | inconclusive: 12.8% [at 46 µM] |  |
| CCS(=O)(=O)c1ncc(N(Cc2ccco2)Cc2sccc2C)c(C(=O)Nc2ccc(C)cc2C)n1 | inconclusive: 17.4% [at 46 µM] |  |
| CN(C)S(=O)(=O)N1CCC(c2ccc(F)cc2)C(COc2ccc3c(c2)OCO3)C1 (configuration not stated) | inconclusive: -33.5% |  |
| CSc1ccc(CN(C)CC(=O)Nc2ccc(C)cc2Br)cc1 |  | inconclusive: 35.5 µM [fluorescent, single point] |
| CCOc1ccccc1CNCc1ccc(F)cc1 | inconclusive: 31.2% [at 46 µM] |  |
| O=C(CN1CC(c2ccccc2)CC1=O)N/N=C/c1cc(Br)ccc1O (configuration not stated) | inconclusive: -45.8% |  |
| Cc1cc(C(=O)NCCN2C(=O)S/C(=C\c3cccs3)C2=O)ccc1[N+](=O)[O-] | inconclusive: 7.78% |  |
| Cc1ccc2nc(N(Cc3cccnc3)C(=O)C3CCCCC3)sc2c1 | inconclusive: -15.8% [at 46 µM] |  |
| Cc1ccc(NC(=O)c2ccc(Cl)cc2[N+](=O)[O-])nc1 | inactive |  |
| CCCn1c(-c2ccc(F)cc2)n[nH]c1=S | inactive |  |
| CC(C)N1C(=O)S/C(=C/c2ccc3c(c2)n(C)c(=O)n3C)C1=O | inconclusive: -30.8% |  |
| Cc1[nH][nH]c(=O)c1C=NCc1cccc(C(F)(F)F)c1 | inconclusive: 2.83% [at 9.22 µM] |  |
| Cc1ccc(C2c3[nH]c4ccccc4c3CCN2C(=O)Nc2ccc(C)c(C)c2)cc1 (configuration not stated) | inconclusive: -39.9% [at 46 µM] |  |
| Cc1ccc(S(=O)(=O)NCCCC(=O)O)cc1 | inconclusive: -2.81% [at 46 µM] |  |
| CCOC(=O)C(C)Sc1nnc2ccc3ccccc3n12 (configuration not stated) | inactive |  |
| CC(=O)c1cccc(NC(=O)c2nc(-c3ccc(C)cc3)n3c2CCCCC3)c1 | inactive |  |
| Cc1cc(CNC(=O)CCc2nnc(CCCCc3ccccc3)o2)nn1C | inconclusive: 16.1% [at 46 µM] |  |
| CCOc1ccc(C(=O)c2oc3ccccc3c2NC(=O)c2cc(-c3ccccc3)on2)cc1 | inconclusive: 27.4% [at 46 µM] |  |
| CCOC(=O)c1c(NC(=O)c2ccccc2Br)sc2c1CCc1ccccc1-2 | inactive |  |

By substructure: the entries above containing a nitro group on carbon.

| Compound | ratio change, negative = inhibition | Potency |
| --- | --- | --- |
| Cc1cc(C(=O)NCCN2C(=O)S/C(=C\c3cccs3)C2=O)ccc1[N+](=O)[O-] | inconclusive: 7.78% |  |
| Cc1ccc(NC(=O)c2ccc(Cl)cc2[N+](=O)[O-])nc1 | inactive |  |

The list continues.

| Compound | ratio change, negative = inhibition | Potency |
| --- | --- | --- |
| Cc1cccc(/C(N)=N/OC(=O)COc2ccc(Cl)cc2)c1 | inactive |  |
| O=C(c1ccc2c(c1)N(Cc1cccc(Cl)c1)C(=O)c1ccccc1S2(=O)=O)N1CCC(Cc2ccccc2)CC1 | inactive |  |
| Cc1ccc(S(=O)(=O)c2cc3c(=O)n4ccccc4nc3n(Cc3ccco3)c2=N)cc1C | inactive |  |
| Cc1cccc(Cn2c(SCc3ccc(C(=O)NCCc4ccccc4)cc3)nc3cccnc32)c1 | inconclusive: -7.5% [at 46 µM] |  |
| O=C(CC1CCCCC1)NCCOc1ccccc1 | inconclusive: 16.3% |  |
| O=C(Nc1ccccc1)Nc1c(F)cccc1F | inconclusive: -11% [at 46 µM] |  |
| O=C(c1cc(Cl)cc(Cl)c1)N1CCC(=O)N(C(COCc2ccccc2)Cc2ccccc2)CC1 (configuration not stated) |  | inconclusive: 35.5 µM [falling, single point] |
| CCOC(=O)N1CCc2c(sc3c2C(=O)NC(c2ccccc2)N3)C1 (configuration not stated) | inconclusive: -13.7% |  |
| CC(C)CN(CC(C)C)C(=O)C12CCC(C)(C(=O)C1)C2(C)C (configuration not stated) | inconclusive: -8.8% |  |
| CCOc1ccccc1NC(=O)NCCC1=CCCCC1 | inconclusive: -0.2% [at 46 µM] |  |
| CN(Cc1cc2ccccc2[nH]c1=O)S(=O)(=O)c1ccccc1 | inactive |  |
| COc1cc(/C=N\NC(=O)c2ccc(Cn3cc(Br)c([N+](=O)[O-])n3)o2)cc(OC)c1O | inconclusive: -12.2% |  |
| CN(C)S(=O)(=O)c1cc(NC(=O)CNCCN2CCOCC2)ccc1Cl | inconclusive: -0.69% [at 46 µM] |  |
| CCc1cc2c(nc1CC)CCN(CC/C(C)=N/O[C@@H](C)c1cc(-c3c(C)cc(C)cc3C)no1)C2 | inconclusive: -40% |  |
| Cc1nn2c3ccccc3n(Cc3ccccc3)c2nc1=O | inactive |  |
| c1cc(CN2CCCCC2)cc(OCCCNc2nc3ccccc3s2)c1 | inconclusive: -21.7% |  |
| Nn1c(Cc2cccc3ccccc23)nnc1SCc1ccccc1Cl | inconclusive: -6.38% |  |
| c1ccc2c(c1)ncn2Cc1nnc2sc(-c3ccc4c(c3)OCO4)nn12 | inactive |  |
| O=C1NC(c2cc(Cl)cc([N+](=O)[O-])c2O)Nc2ccccc21 (configuration not stated) | inconclusive: -6.79% [at 46 µM] |  |
| Cc1cc(C)cc(C(=O)Nc2nnc(SCC(=O)N3CCCc4ccccc43)s2)c1 | inconclusive: -11.9% |  |
| Clc1ccccc1-c1nnn(Cc2ccc(-c3nn[nH]n3)cc2)n1 | inactive |  |
| CCOc1ccc(-n2c(SC(C)C(=O)OC)nc3c([nH]c4ccccc43)c2=O)cc1 (configuration not stated) | inactive |  |

| Compound | ratio change, negative = inhibition | Potency |
| --- | --- | --- |
| O=C(CSc1ccccn1)Nc1ccc(Br)cn1 | inactive |  |
| COc1ccc(Cl)cc1NC(=O)c1nc(S(C)(=O)=O)ncc1N(Cc1ccc(C)cc1)Cc1ccco1 | inconclusive: 31.2% [at 46 µM] |  |
| O=C(CSc1nc(=O)[nH]c2c1CCCC2)NCc1ccc(Cl)cc1 | inconclusive: 24.2% [at 46 µM] |  |
| Cc1cccn2c1nc(=S)n2C(=O)c1ccco1 | inactive |  |
| O=c1cc(C(Cl)(Cl)Cl)oc2c1ccc1ccccc12 | inactive |  |
| OC[C@@H](O)[C@@H](O[C@H]1O[C@H](CO)[C@@H](O)[C@H](O)[C@H]1O)[C@H](O)[C@@H](O)CO | inconclusive: 11.5% [at 46 µM] |  |
| COc1ccc2[nH]c(=O)c(CNc3ccccc3)cc2c1 | inactive |  |
| O=c1cc(CSc2nnc(-c3ccco3)o2)c2ccccc2[nH]1 | inactive |  |
| Cc1ccc2cc(C(c3nnnn3C(C)(C)C)N3CCCCCC3)c(=O)[nH]c2c1 (configuration not stated) | inconclusive: 3.4% |  |
| Cc1ccc(CN(C)C(=O)C2CCCN2C(=O)c2cccs2)o1 (configuration not stated) | inactive |  |
| CN(C)c1ncnc2ccc(-c3ccccc3C(F)(F)F)cc12 | inconclusive: 2.22% |  |
| Cc1cc(C)nc(NS(=O)(=O)c2ccc(NC(=S)NC(=O)C3CCCC3)cc2)n1 | inactive |  |
| COc1ccc(CNC(=O)CN2CCN(C(c3ccccc3)c3ccccc3)CC2)cc1 |  | inconclusive: 35.5 µM [inhibitor, single point] |
| CCOc1ccc2c(c1)C(N(CCN1CCOCC1)C(=S)Nc1ccccc1OC)CC(C)(C)O2 (configuration not stated) | inconclusive: 10.5% [at 9.22 µM] |  |
| COc1ccc(OCc2nnc(SCC(=O)N(C)Cc3ccccc3)n2N)cc1 | inactive |  |
| COc1cc(C2C(=O)N(C3CCC(C)CC3)CC(=O)N2CCc2ccc(Cl)cc2)ccc1OC(C)C (configuration not stated) | inactive |  |
| CN(c1cccc(NS(=O)(=O)c2cccs2)c1)S(C)(=O)=O | inactive |  |
| CCc1ccc(C2C(C#N)=C(N)SC(N)=C2C#N)cc1 | inactive |  |
| COc1cccc(CN2CCN(C(=S)NCc3ccc(Cl)cc3)CC2)c1 | inconclusive: -33.1% [at 46 µM] |  |
| CC(C)c1nnc(NC(=O)c2ccc3c(c2)OCO3)s1 | inactive |  |
| CCc1nn(C(C)C(=O)Nc2cccc(C)c2C)c(=O)c2cc3occc3n12 (configuration not stated) | inactive |  |

Single values from the entries so far.
`O=c1cc(CSc2nnc(-c3ccco3)o2)c2ccccc2[nH]1` | ratio change, negative = inhibition: inactive
`COc1cccc(CN2CCN(C(=S)NCc3ccc(Cl)cc3)CC2)c1` | ratio change, negative = inhibition: inconclusive: -33.1% [at 46 µM]
